# In article PMC5996148:
# Where “and” joins values, the source holds several entries; their conditions need not be identical. Equal entries are not always repeated. Some of the results follow. For some assays here: The exact form of the protein is not confirmed.
# Legend:
# Experiment in all cases: protein microarray (ProtoArray v5.0), streptavidin-Alexa Fluor 647
# Settings in all cases: 3'-biotin; 20 mM Tris (pH 7.5), 5 mM MgCl2, 100 mM KCl, 0.1% Tween-20, A/T-rich and random oligonucleotide blockers; temperature not stated; high values mean tight binding
# NME1 (human) = tested on: NME1 (human)
# NME5 (human) = tested on: NME5 (human)
# NME6 (human) = tested on: NME6 (human)
# NME7 (human) = tested on: NME7 (human)
# NMI (human) = tested on: NMI (human)
# NMNAT2 (human) = tested on: NMNAT2 (human)
# NOL6 (human) = tested on: NOL6 (human)
# NOL7 = biological target: T1, NOL7 (UniProt Q9UMY1)
# T1 sequence: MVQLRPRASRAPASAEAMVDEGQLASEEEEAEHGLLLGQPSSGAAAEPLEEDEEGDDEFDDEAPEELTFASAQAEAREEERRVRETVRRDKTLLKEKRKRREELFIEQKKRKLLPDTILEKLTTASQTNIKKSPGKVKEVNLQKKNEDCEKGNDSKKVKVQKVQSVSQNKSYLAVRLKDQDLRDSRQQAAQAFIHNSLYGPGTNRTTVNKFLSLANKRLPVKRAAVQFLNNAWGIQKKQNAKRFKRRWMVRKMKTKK
# NOTUM (human) = tested on: NOTUM (human)
# NPC2 (human) = tested on: NPC2 (human)
# NPL (human) = tested on: NPL (human)
# NPPA (human) = tested on: NPPA (human)
# NPY (human) = tested on: NPY (human)
# NQO2 (human) = tested on: NQO2 (human)
# NRARP (human) = tested on: NRARP (human)
# NRBF2 (human) = tested on: NRBF2 (human)
# NSUN3 (human) = tested on: NSUN3 (human)
# NT5C3L (human) = tested on: NT5C3L (human)
# NT5DC1 (human) = tested on: NT5DC1 (human)
# NTS (human) = tested on: NTS (human)
sequence,measurement,setting,value
GGGAGGCTGAGGCAGG [G4-1 biotinylated (PQS2)],binding signal,NME1 (human),-0.34 z-score and -0.36 z-score
same,binding signal,NME5 (human),-0.342 z-score
same,binding signal,NME6 (human),-0.347 z-score
same,binding signal,NME7 (human),-0.294 z-score
same,binding signal,NMI (human),-0.326 z-score
same,binding signal,NMNAT2 (human),-0.346 z-score
same,binding signal,NOL6 (human),-0.328 z-score
same,binding signal,NOL7,4.76 z-score
same,binding signal,NOTUM (human),-0.307 z-score
same,binding signal,NPC2 (human),-0.322 z-score
same,binding signal,NPL (human),-0.343 z-score
same,binding signal,NPPA (human),-0.284 z-score
same,binding signal,NPY (human),-0.316 z-score
same,binding signal,NQO2 (human),-0.296 z-score
same,binding signal,NRARP (human),-0.348 z-score
same,binding signal,NRBF2 (human),-0.354 z-score
same,binding signal,NSUN3 (human),-0.277 z-score
same,binding signal,NT5C3L (human),-0.331 z-score
same,binding signal,NT5DC1 (human),-0.262 z-score
same,binding signal,NTS (human),-0.346 z-score

# 2 entries from above, with tabs.
sequence	measurement	setting	value
GGGAGGCTGAGGCAGG [G4-1 biotinylated (PQS2)]	binding signal	NRBF2 (human)	-0.354 z-score
same	binding signal	NSUN3 (human)	-0.277 z-score
